Assay results from patent US20240199759A1.
Results are given in words; binding and its absence hold for the method and conditions named. Some results given as binding are weak or reduced against the parent protein; the word gives no strength.

Protein sequences, listed by entry. Tags and fused reporters are not part of them. Lines headed by an entry give the natural chain unless they say otherwise; changes in a name come on top. Residues count along the entry.
UniProt O76036: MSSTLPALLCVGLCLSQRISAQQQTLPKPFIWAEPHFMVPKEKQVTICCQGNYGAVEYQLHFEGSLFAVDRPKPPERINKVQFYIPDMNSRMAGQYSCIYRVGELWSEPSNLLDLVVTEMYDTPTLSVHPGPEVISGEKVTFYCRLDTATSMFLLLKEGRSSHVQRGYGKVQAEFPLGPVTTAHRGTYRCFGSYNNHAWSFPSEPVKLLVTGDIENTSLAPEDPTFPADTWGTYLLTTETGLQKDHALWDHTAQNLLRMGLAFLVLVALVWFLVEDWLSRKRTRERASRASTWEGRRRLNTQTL
human NKp46 expressed on cells (BW NKp46 transfectants; primary activated human NK cells): residues 22-304 of O76036
human NKp46 (form in the assay not stated): residues 22-255 of O76036

How the values were obtained:
[1] = target: human NKp46 expressed on cells (BW NKp46 transfectants; primary activated human NK cells) (human) (UniProt O76036); test: summary of the flow cytometry assays of Example 1
[2] = target: human NKp46 expressed on cells (BW NKp46 transfectants; primary activated human NK cells) (human) (UniProt O76036); test: staining of BW cells transfected to express NKp46
[3] = target: human NKp46 (form in the assay not stated) (human) (UniProt O76036); test: BIAcore, mAb12 injected as analyte over NKp46
[4] = target: human NKp46 expressed on cells (BW NKp46 transfectants; primary activated human NK cells) (human) (UniProt O76036); test: flow cytometry on BW transfectants expressing NKp46
[5] = target: human NKp46 expressed on cells (BW NKp46 transfectants; primary activated human NK cells) (human) (UniProt O76036); test: flow cytometry on IL-2 activated primary human NK cells
[6] = target: human NKp46 expressed on cells (BW NKp46 transfectants; primary activated human NK cells) (human) (UniProt O76036); test: flow cytometry on BW, BW NKp46 and NK Fiji cells, αm-647 detection
[7] = target: human NKp46 expressed on cells (BW NKp46 transfectants; primary activated human NK cells) (human) (UniProt O76036); test: dose response FACS staining of primary activated NK cells from two donors
[8] = target: human NKp46 expressed on cells (BW NKp46 transfectants; primary activated human NK cells) (human) (UniProt O76036); test: flow cytometry on primary activated bulk human NK cells, secondary antibody detection
[9] = target: human NKp46 expressed on cells (BW NKp46 transfectants; primary activated human NK cells) (human) (UniProt O76036); test: flow cytometry dose series on primary activated NK cells of two donors (NK 1, NK 2), αm-647 detection
[10] = target: human NKp46 expressed on cells (BW NKp46 transfectants; primary activated human NK cells) (human) (UniProt O76036); test: flow cytometry on BW cells transfected with NKp46 versus parental BW cells, secondary antibody detection
[11] = target: human NKp46 expressed on cells (BW NKp46 transfectants; primary activated human NK cells) (human) (UniProt O76036); test: flow cytometry on activated NK cells after incubation with the mAb at 4°C or 37°C, anti-mouse 647 detection
[12] = target: human NKp46 (form in the assay not stated) (human) (UniProt O76036); test: BIAcore, mAb9 injected as analyte over NKp46

Measured: binding

B1: mouse anti-NKp46 monoclonal antibody 12 (antibody, V domains shown)
VH: EVQLQQSGPELVKPGTSVKISCKTSGYTFTEYSMHWVKQSHGKSLEWFGGISPNSGGTSYNQKFKGKATLTVDKSSSTAYMELRSLTSEDSAVYYCARRDFHSSFDYWGQGTTLTVSS
VL: DIVLTQSPATLSVTPGNSVSLSCRASQSISDYLHWFQQKSHESPRLLIKYASQSISGIPSRFSGSGSGSDFTLSINSVEPEDVGVYYCQNGHSFPLTFGPGTKLELK
not listed: [12]
binds: all other assays above

B2: mouse anti-NKp46 monoclonal antibody 09 (antibody, V domains shown)
VH: EVQLQQSGPELVKPGTSVKISCKTSGYTFTEYSMHWVKQSHGKSLEWFGGISPNSGGTSYNQKFKGKATLTVDKSSSTAYMELRSLTSEDSAVYYCARRDFHSSFDYWGQGTTLTVSS
VL: DIVMTQSPATLSVTPGDRVSLSCRASQSISDYLHWFQQKSHESPRLLIKYASQSISGIPSRFSGSGSGSDFTLSINSVEPEDVGVYYCQNGHSFPLTFGPGTKLELK
binds: [12]
